Source: US20060263354A1
No constants are given. Whether binding was seen depends on the method and setting. Some results given as binding are weak or reduced against the parent protein; the word gives no strength.

Target: T1, mature GDF8/propeptide complex (human) (UniProt O14793)
T1 sequence 1: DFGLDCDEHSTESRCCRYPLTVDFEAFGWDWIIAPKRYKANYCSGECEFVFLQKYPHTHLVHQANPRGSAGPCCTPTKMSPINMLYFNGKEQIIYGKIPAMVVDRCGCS
T1 sequence 2: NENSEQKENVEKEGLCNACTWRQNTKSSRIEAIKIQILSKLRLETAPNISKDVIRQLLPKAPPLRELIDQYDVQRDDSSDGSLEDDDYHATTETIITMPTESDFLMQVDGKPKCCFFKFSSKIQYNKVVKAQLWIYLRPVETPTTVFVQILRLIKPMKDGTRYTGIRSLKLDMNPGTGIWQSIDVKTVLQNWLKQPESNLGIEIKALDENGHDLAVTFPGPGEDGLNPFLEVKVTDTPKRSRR
Experiment: immunoprecipitation from 293T conditioned medium, western blot

binding: binds
B1: 1-66-1 (antibody, V domains shown)
VH: EVQLVESGGGLVKPGGSLRLSCAASGFTFSSYSMNWVRQAPGKGLEWVSSISSSSSYIYYADSVKGRFTISRDNAKNSLYLQMNSLRAEDTAVYYCARDRGYSYGLDYWGQGTLVTVSS
VL: DIQMTQSPSSLSASVGDRVTITCRASQGIRNDLGWYQQKPGKAPKRLIYAASSLQSGVPSRFSGSGSGTEFTLTISSLQPEDFATYYCLQLNSYPFTFGPGTKVDIKR
